Where two headings read alike, the source gives them in different places. Where a SMILES comes first, the peptide text is derived from it. [ ]: non-standard residue; d: D form. The star is where a group is joined. Lys(Me3) = C[N+](C)(C)CCCC[C@H](N)C(=O)O; Stearoyl = CCCCCCCCCCCCCCCCCC(=O)*; Palmitoyl = CCCCCCCCCCCCCCCC(=O)*; Myristoyl = CCCCCCCCCCCCCC(=O)*
How the values were obtained:
[1] = system: K. aerogenes ATCC 13048; assay type: cell-based, Klebsiella aerogenes; conditions: for Selectivity index (SI) K. aerogenes: IC50 (HaCaT)/MIC
Description: (§1) The Acinetobacter baumannii ATCC BAA-1605, Enterococcus faecium ATCC 700221, Klebsiella aerogenes ATCC 13048, Klebsiella pneumoniae ATCC 700603, Pseudomonas aeruginosa ATCC 9027, Staphylococcus aureus ATCC 33591, Candida glabrata ATCC 15126 strains were acquired from the American Type Culture Collection (ATCC, Manassas, USA). All the strains were stored at −80 °C in Roti-Store cryo vials (Carl Roth GmbH, Germany) and before the tests were transferred into fresh Mueller–Hinton broth (MHB, Becton Dickinson, Poland) for bacteria or RPMI-1640 (Sigma-Aldrich, Germany) for fungi and incubated for 24 h at 37 °C. Then, the cultures were cultured on the Mueller–Hinton agar (BioMaxima, Poland) or Sabouraud dextrose agar (SDA, BioMaxima) plates, respectively, and incubated as just mentioned. For microbiological assays, a minimum of three to five well-isolated colonies of the same morphological type were carefully picked from the agar cultures. These colonies were transferred with sterile loop into fresh microbiological medium and incubated with shaking (100 rpm) at 37 °C until they reached logarithmic phase of growth. Cell densities for all assays were adjusted through spectrophotometric measurements (Multiskan GO Microplate Spectrophotometer, Thermo Fisher Scientific, Finland) at 600 and 530 nm for bacteria and fungi, respectively.
(§2) The MICs were determined by broth microdilution method according to the Clinical and Laboratory Standard Institute guidelines. For this purpose, initial inoculums of bacteria (5 × 10^5 CFU/mL) in MHB and yeasts (2 × 10^3 CFU/mL) in RPMI-1640 with 2% D-glucose were exposed to the ranging concentration of lipopeptides (1–512 μg/mL) and incubated at 37 °C for 18 h and 24 h, respectively. The experiments were conducted on 96-well microtiter polystyrene plates (Kartell, Italy). The growth was assessed visually after incubation and the MIC was assumed as the lowest peptide concentration at which a noticeable growth of microorganisms was inhibited. Benzalkonium chloride (Sigma-Aldrich, Germany) was used as reference compound. All experiments were conducted in triplicate.

[2] = system: P. aeruginosa ATCC 9027; assay type: cell-based, Pseudomonas aeruginosa; conditions: for Selectivity index (SI) P. aeruginosa: IC50 (HaCaT)/MIC
Description: as §1, §2

[3] = system: A. baumannii ATCC BAA 1605; assay type: cell-based, Acinetobacter baumannii; conditions: for Selectivity index (SI) A. baumannii: IC50 (HaCaT)/MIC
Description: as §1, §2

[4] = system: K. pneumoniae ATCC 700603; assay type: cell-based, Klebsiella pneumoniae
Description: as §1, §2

[5] = system: S. aureus ATCC 33591; assay type: cell-based, Staphylococcus aureus; conditions: for Selectivity index (SI) S. aureus: IC50 (HaCaT)/MIC
Description: as §1, §2

[6] = system: E. faecium ATCC 700221; assay type: cell-based, Enterococcus faecium
Description: as §1, §2

[7] = system: C. glabrata ATCC 15126; assay type: cell-based, Candida glabrata; conditions: SI of qUSCL divided by SI of parent USCL
Description: as §1, §2

[8] = SI of qUSCL divided by SI of parent USCL

Compound: CCCCCCCCCCCCCC(=O)N[C@@H](CCCCN)C(N)=O [Peptide 1M, C14-K-NH2]
- Selectivity index (SI) K. aerogenes [1]: - (due to lack of antimicrobial activity of compound for specific strain with MIC >512 µg/mL, SI tends to zero)
- Selectivity index (SI) P. aeruginosa [2]: - (due to lack of antimicrobial activity of compound for specific strain with MIC >512 µg/mL, SI tends to zero)
- Selectivity index (SI) A. baumannii [3]: - (due to lack of antimicrobial activity of compound for specific strain with MIC >512 µg/mL, SI tends to zero)
- Selectivity index (SI) K. pneumoniae ([4]; HC50/MIC): -
- Selectivity index (SI) K. pneumoniae ([4]; IC50 (HaCaT)/MIC): - (due to lack of antimicrobial activity of compound for specific strain with MIC >512 µg/mL, SI tends to zero)

Compound: CCCCCCCCCCCCCC(=O)N[C@@H](CCCC[N+](C)(C)C)C(N)=O [Peptide 1Mq, C14-K(Me3)^+-NH2]
- quotient SIqUSCLs/SIUSCLs in terms of HC50, S. aureus [5, 8]: 0.1
- quotient SIqUSCLs/SIUSCLs in terms of HC50, E. faecium [6, 8]: 0.1
- Selectivity index (SI) K. pneumoniae ([4]; HC50/MIC): -
- Selectivity index (SI) K. pneumoniae ([4]; IC50 (HaCaT)/MIC): - (due to lack of antimicrobial activity of compound for specific strain with MIC >512 µg/mL, SI tends to zero)

Compound: CCCCCCCCCCCCCCCC(=O)N[C@@H](CCCCN)C(N)=O [Peptide 1P, C16-K-NH2]
- Selectivity index (SI) K. aerogenes [1]: - (due to lack of antimicrobial activity of compound for specific strain with MIC >512 µg/mL, SI tends to zero)
- Selectivity index (SI) S. aureus [5]: - (due to lack of antimicrobial activity of compound for specific strain with MIC >512 µg/mL, SI tends to zero)
- Selectivity index (SI) P. aeruginosa [2]: - (due to lack of antimicrobial activity of compound for specific strain with MIC >512 µg/mL, SI tends to zero)
- Selectivity index (SI) A. baumannii [3]: - (due to lack of antimicrobial activity of compound for specific strain with MIC >512 µg/mL, SI tends to zero)
- Selectivity index (SI) K. pneumoniae ([4]; HC50/MIC): -
- Selectivity index (SI) K. pneumoniae ([4]; IC50 (HaCaT)/MIC): - (due to lack of antimicrobial activity of compound for specific strain with MIC >512 µg/mL, SI tends to zero)

Compound: CCCCCCCCCCCCCCCC(=O)N[C@@H](CCCC[N+](C)(C)C)C(N)=O [Peptide 1Pq, C16-K(Me3)^+-NH2]
- Selectivity index (SI) P. aeruginosa [2]: - (due to lack of antimicrobial activity of compound for specific strain with MIC >512 µg/mL, SI tends to zero)

Compound: CCCCCCCCCCCCCCCCCC(=O)N[C@@H](CCCCN)C(N)=O [Peptide 1S, C18-K-NH2]
- Selectivity index (SI) K. aerogenes [1]: - (due to lack of antimicrobial activity of compound for specific strain with MIC >512 µg/mL, SI tends to zero)
- Selectivity index (SI) S. aureus [5]: - (due to lack of antimicrobial activity of compound for specific strain with MIC >512 µg/mL, SI tends to zero)
- Selectivity index (SI) P. aeruginosa [2]: - (due to lack of antimicrobial activity of compound for specific strain with MIC >512 µg/mL, SI tends to zero)
- Selectivity index (SI) E. faecium ([6]; HC50/MIC): -
- Selectivity index (SI) E. faecium ([6]; IC50 (HaCaT)/MIC): - (due to lack of antimicrobial activity of compound for specific strain with MIC >512 µg/mL, SI tends to zero)
- Selectivity index (SI) A. baumannii [3]: - (due to lack of antimicrobial activity of compound for specific strain with MIC >512 µg/mL, SI tends to zero)
- Selectivity index (SI) K. pneumoniae ([4]; HC50/MIC): -
- Selectivity index (SI) K. pneumoniae ([4]; IC50 (HaCaT)/MIC): - (due to lack of antimicrobial activity of compound for specific strain with MIC >512 µg/mL, SI tends to zero)

Compound: CCCCCCCCCCCCCCCCCC(=O)N[C@@H](CCCC[N+](C)(C)C)C(N)=O [Peptide 1Sq, C18-K(Me3)^+-NH2]
- Selectivity index (SI) K. aerogenes [1]: - (due to lack of antimicrobial activity of compound for specific strain with MIC >512 µg/mL, SI tends to zero)
- Selectivity index (SI) P. aeruginosa [2]: - (due to lack of antimicrobial activity of compound for specific strain with MIC >512 µg/mL, SI tends to zero)
- Selectivity index (SI) A. baumannii [3]: - (due to lack of antimicrobial activity of compound for specific strain with MIC >512 µg/mL, SI tends to zero)
- Selectivity index (SI) K. pneumoniae ([4]; HC50/MIC): -
- Selectivity index (SI) K. pneumoniae ([4]; IC50 (HaCaT)/MIC): - (due to lack of antimicrobial activity of compound for specific strain with MIC >512 µg/mL, SI tends to zero)

Compound: CCCCCCCCCCCCCC(=O)N[C@@H](CCCCN)C(=O)N[C@@H](CCCCN)C(N)=O [Peptide 2M, C14-KK-NH2]
- Selectivity index (SI) K. pneumoniae ([4]; HC50/MIC): -
- Selectivity index (SI) K. pneumoniae ([4]; IC50 (HaCaT)/MIC): - (due to lack of antimicrobial activity of compound for specific strain with MIC >512 µg/mL, SI tends to zero)

Compound: CCCCCCCCCCCCCC(=O)N[C@@H](CCCC[N+](C)(C)C)C(=O)N[C@@H](CCCC[N+](C)(C)C)C(N)=O [Peptide 2Mq, C14-K(Me3)^+K(Me3)^+-NH2]
- Selectivity index (SI) K. aerogenes [1]: - (due to lack of antimicrobial activity of compound for specific strain with MIC >512 µg/mL, SI tends to zero)
- quotient SIqUSCLs/SIUSCLs in terms of HC50, C. glabrata [7]: 0.7
- Selectivity index (SI) P. aeruginosa [2]: - (due to lack of antimicrobial activity of compound for specific strain with MIC >512 µg/mL, SI tends to zero)
- Selectivity index (SI) A. baumannii [3]: - (due to lack of antimicrobial activity of compound for specific strain with MIC >512 µg/mL, SI tends to zero)
- Selectivity index (SI) K. pneumoniae ([4]; HC50/MIC): -
- Selectivity index (SI) K. pneumoniae ([4]; IC50 (HaCaT)/MIC): - (due to lack of antimicrobial activity of compound for specific strain with MIC >512 µg/mL, SI tends to zero)

Compound: CCCCCCCCCCCCCC(=O)N[C@@H](CCCCN)C(=O)N[C@@H](CCCCN)C(=O)N[C@@H](CCCCN)C(N)=O [Peptide 3M, C14-KKK-NH2]
- Selectivity index (SI) K. pneumoniae ([4]; HC50/MIC): -
- Selectivity index (SI) K. pneumoniae ([4]; IC50 (HaCaT)/MIC): - (due to lack of antimicrobial activity of compound for specific strain with MIC >512 µg/mL, SI tends to zero)

Compound: CCCCCCCCCCCCCC(=O)N[C@@H](CCCC[N+](C)(C)C)C(=O)N[C@@H](CCCC[N+](C)(C)C)C(=O)N[C@@H](CCCC[N+](C)(C)C)C(N)=O [Peptide 3Mq, C14-K(Me3)^+K(Me3)^+K(Me3)^+-NH2]
- Selectivity index (SI) K. pneumoniae ([4]; HC50/MIC): -

Compound: CCCCCCCCCCCCCC(=O)N[C@@H](CCCCN)C(=O)N[C@@H](CCCCN)C(=O)N[C@@H](CCCCN)C(=O)N[C@@H](CCCCN)C(N)=O [Peptide 4M, C14-KKKK-NH2] (Myristoyl-KKKK-NH2)
- Selectivity index (SI) K. pneumoniae ([4]; HC50/MIC): -
- Selectivity index (SI) K. pneumoniae ([4]; IC50 (HaCaT)/MIC): - (due to lack of antimicrobial activity of compound for specific strain with MIC >512 µg/mL, SI tends to zero)

Compound: CCCCCCCCCCCCCC(=O)N[C@@H](CCCC[N+](C)(C)C)C(=O)N[C@@H](CCCC[N+](C)(C)C)C(=O)N[C@@H](CCCC[N+](C)(C)C)C(=O)N[C@@H](CCCC[N+](C)(C)C)C(N)=O [Peptide 4Mq, C14-K(Me3)^+K(Me3)^+K(Me3)^+K(Me3)^+-NH2] (Myristoyl-[Lys(Me3)][Lys(Me3)][Lys(Me3)][Lys(Me3)]-NH2)
- Selectivity index (SI) K. pneumoniae ([4]; HC50/MIC): -

Compound: CCCCCCCCCCCCCCCC(=O)N[C@@H](CCCC[N+](C)(C)C)C(=O)N[C@@H](CCCC[N+](C)(C)C)C(=O)N[C@@H](CCCC[N+](C)(C)C)C(=O)N[C@@H](CCCC[N+](C)(C)C)C(N)=O [Peptide 4Pq, C16-K(Me3)^+K(Me3)^+K(Me3)^+K(Me3)^+-NH2] (Palmitoyl-[Lys(Me3)][Lys(Me3)][Lys(Me3)][Lys(Me3)]-NH2)
- Selectivity index (SI) K. aerogenes [1]: - (due to lack of antimicrobial activity of compound for specific strain with MIC >512 µg/mL, SI tends to zero)
- Selectivity index (SI) K. pneumoniae ([4]; HC50/MIC): -

Compound: CCCCCCCCCCCCCCCCCC(=O)N[C@@H](CCCC[N+](C)(C)C)C(=O)N[C@@H](CCCC[N+](C)(C)C)C(=O)N[C@@H](CCCC[N+](C)(C)C)C(=O)N[C@@H](CCCC[N+](C)(C)C)C(N)=O [Peptide 4Sq, C18-K(Me3)^+K(Me3)^+K(Me3)^+K(Me3)^+-NH2] (Stearoyl-[Lys(Me3)][Lys(Me3)][Lys(Me3)][Lys(Me3)]-NH2)
- quotient SIqUSCLs/SIUSCLs in terms of HC50, K. aerogenes [1, 8]: 0.7
- quotient SIqUSCLs/SIUSCLs in terms of HC50, P. aeruginosa [2, 8]: 0.2
- quotient SIqUSCLs/SIUSCLs in terms of HC50, A. baumannii [3, 8]: 0.7

— article PMC10687119, “Quaternary Ammonium Salts of Cationic Lipopeptides with Lysine Residues — Synthesis, Antimicrobial, Hemolytic and Cytotoxic Activities” (Probiotics and Antimicrobial Proteins, 2023)
